In the supplement of paper PMC10849652:
The list shows a part of the results.

Chains of the proteins cited; added tags and fusions are not shown. Lines headed by an entry give the natural chain unless they say otherwise; changes in a name come on top.
UniProt Q9Y2B1: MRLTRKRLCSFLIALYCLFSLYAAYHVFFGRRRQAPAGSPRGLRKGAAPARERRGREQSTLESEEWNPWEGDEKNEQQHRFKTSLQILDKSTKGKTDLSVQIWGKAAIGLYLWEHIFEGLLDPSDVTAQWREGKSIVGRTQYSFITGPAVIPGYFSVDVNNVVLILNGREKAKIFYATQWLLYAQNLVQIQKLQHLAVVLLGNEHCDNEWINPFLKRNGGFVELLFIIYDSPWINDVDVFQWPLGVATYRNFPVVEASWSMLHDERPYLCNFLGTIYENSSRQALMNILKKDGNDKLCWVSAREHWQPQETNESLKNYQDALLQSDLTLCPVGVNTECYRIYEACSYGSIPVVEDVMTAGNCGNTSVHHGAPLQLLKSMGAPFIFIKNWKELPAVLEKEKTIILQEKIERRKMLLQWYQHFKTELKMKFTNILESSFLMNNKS
UniProt Q8WWV3: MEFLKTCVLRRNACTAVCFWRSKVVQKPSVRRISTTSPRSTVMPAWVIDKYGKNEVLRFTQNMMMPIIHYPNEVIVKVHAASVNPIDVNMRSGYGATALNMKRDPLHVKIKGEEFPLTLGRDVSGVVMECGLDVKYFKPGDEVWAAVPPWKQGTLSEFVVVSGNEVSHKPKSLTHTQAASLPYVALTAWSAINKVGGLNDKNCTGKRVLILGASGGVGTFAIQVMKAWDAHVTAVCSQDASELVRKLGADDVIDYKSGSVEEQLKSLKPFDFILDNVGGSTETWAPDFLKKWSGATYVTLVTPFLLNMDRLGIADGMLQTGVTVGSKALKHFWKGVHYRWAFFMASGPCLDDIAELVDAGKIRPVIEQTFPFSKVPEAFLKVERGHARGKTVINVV
UniProt Q9BWD3: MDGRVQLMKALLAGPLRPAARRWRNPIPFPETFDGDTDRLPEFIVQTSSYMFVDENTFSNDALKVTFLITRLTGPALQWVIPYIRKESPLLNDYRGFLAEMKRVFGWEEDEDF
UniProt Q9BUV0: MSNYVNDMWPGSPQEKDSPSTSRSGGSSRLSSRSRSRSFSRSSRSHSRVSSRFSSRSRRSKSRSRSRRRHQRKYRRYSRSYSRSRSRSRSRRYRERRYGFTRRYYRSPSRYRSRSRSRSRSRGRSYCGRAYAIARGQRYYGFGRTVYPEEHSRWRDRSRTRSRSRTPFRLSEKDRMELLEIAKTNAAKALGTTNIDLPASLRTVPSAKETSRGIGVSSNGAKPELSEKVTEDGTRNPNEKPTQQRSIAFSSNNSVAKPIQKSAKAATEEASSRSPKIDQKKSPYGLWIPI
UniProt Q5VWQ0: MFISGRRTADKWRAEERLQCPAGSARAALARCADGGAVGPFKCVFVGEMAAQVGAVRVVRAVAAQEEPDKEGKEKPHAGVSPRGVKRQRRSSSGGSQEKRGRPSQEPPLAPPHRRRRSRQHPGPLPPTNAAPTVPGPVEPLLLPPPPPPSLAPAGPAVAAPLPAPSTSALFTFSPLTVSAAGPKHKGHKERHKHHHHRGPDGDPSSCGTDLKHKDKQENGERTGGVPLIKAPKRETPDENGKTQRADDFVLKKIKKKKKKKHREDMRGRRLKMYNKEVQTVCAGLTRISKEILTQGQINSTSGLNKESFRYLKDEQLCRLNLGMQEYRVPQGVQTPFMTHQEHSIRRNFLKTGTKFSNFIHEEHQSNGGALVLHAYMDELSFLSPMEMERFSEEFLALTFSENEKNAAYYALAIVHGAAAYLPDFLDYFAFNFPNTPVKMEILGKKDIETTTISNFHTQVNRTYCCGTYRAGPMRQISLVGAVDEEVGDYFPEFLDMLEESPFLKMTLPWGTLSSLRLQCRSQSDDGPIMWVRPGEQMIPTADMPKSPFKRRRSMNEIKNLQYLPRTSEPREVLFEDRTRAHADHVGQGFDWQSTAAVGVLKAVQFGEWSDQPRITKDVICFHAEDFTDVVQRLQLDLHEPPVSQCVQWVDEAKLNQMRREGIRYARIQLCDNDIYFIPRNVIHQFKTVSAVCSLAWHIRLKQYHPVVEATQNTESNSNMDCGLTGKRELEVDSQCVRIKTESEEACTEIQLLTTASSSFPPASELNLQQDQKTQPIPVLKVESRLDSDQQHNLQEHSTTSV
UniProt O95059: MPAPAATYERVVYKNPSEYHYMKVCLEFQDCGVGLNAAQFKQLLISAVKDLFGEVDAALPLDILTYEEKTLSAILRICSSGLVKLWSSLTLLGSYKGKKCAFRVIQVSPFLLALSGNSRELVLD
UniProt P23297: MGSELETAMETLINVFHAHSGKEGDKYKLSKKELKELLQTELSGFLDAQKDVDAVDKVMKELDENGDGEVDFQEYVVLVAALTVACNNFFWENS
UniProt P28702: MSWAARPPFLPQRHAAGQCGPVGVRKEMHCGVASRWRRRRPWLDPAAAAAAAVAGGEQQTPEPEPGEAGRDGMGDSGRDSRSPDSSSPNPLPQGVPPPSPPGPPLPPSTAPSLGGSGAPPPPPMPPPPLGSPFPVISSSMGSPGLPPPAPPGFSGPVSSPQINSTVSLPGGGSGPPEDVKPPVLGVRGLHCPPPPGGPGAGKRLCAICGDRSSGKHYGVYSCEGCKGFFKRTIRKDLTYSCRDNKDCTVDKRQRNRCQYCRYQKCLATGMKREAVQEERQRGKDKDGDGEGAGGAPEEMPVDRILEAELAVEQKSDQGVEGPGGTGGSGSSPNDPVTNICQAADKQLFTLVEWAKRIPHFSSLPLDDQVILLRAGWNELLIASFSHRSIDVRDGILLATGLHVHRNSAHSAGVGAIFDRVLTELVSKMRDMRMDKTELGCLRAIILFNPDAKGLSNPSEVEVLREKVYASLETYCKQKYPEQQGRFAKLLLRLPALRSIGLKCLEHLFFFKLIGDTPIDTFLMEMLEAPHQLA
UniProt Q92681: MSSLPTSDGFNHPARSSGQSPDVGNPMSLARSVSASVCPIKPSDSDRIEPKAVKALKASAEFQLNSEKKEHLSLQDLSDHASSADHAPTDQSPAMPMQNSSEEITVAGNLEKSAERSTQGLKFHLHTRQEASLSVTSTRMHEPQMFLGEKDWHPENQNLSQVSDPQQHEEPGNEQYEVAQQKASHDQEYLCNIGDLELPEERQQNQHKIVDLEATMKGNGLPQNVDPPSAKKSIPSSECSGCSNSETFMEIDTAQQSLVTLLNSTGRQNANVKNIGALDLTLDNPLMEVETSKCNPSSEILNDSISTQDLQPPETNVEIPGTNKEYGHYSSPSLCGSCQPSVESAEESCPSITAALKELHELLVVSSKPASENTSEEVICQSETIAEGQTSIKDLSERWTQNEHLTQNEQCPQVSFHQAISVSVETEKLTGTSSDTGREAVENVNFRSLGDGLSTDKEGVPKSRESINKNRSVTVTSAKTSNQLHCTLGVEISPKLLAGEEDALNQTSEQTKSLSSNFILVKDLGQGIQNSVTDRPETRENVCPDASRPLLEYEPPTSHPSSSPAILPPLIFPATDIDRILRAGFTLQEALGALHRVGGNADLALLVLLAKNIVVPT
UniProt Q9NZ71: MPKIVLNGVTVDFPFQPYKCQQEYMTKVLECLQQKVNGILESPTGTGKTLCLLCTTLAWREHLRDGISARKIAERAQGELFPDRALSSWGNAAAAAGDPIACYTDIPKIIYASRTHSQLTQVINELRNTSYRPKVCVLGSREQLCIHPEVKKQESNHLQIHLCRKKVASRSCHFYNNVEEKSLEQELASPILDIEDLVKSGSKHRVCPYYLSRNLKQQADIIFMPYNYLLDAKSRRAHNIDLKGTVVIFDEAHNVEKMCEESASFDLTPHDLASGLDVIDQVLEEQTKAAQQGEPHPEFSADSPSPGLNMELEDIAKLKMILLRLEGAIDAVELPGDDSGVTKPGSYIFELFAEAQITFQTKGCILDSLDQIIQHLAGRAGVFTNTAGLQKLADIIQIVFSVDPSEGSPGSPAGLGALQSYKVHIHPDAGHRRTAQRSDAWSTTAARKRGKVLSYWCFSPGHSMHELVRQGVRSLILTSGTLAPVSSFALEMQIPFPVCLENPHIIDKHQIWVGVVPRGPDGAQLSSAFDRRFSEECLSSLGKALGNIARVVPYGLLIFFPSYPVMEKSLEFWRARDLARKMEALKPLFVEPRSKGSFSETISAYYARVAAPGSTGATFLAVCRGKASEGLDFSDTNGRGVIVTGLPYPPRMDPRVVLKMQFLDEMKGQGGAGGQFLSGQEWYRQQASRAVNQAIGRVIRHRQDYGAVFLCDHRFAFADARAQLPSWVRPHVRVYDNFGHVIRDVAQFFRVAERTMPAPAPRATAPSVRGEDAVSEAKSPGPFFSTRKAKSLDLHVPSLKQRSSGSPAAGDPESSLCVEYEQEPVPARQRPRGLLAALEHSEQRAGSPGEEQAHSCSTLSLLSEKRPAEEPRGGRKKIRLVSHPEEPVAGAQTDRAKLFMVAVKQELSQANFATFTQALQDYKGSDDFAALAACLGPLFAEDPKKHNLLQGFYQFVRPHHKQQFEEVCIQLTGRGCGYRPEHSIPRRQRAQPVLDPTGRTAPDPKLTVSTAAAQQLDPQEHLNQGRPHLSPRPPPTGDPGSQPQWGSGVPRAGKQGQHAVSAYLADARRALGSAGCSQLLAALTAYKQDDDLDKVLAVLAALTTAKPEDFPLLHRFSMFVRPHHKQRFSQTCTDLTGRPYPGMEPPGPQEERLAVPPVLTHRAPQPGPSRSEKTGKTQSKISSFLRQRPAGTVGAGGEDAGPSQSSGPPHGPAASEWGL
UniProt Q7L4I2: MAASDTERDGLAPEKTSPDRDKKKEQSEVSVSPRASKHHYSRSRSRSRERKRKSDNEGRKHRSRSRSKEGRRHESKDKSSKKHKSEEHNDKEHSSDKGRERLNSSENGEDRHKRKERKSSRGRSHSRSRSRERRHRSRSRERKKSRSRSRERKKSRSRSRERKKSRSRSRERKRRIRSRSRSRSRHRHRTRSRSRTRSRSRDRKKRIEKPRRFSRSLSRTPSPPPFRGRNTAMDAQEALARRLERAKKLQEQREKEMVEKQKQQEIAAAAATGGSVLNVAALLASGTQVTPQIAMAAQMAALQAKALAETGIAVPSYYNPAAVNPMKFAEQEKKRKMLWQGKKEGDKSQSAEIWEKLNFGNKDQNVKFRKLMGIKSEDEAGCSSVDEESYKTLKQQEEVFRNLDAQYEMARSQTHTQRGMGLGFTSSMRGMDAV
UniProt Q96C34: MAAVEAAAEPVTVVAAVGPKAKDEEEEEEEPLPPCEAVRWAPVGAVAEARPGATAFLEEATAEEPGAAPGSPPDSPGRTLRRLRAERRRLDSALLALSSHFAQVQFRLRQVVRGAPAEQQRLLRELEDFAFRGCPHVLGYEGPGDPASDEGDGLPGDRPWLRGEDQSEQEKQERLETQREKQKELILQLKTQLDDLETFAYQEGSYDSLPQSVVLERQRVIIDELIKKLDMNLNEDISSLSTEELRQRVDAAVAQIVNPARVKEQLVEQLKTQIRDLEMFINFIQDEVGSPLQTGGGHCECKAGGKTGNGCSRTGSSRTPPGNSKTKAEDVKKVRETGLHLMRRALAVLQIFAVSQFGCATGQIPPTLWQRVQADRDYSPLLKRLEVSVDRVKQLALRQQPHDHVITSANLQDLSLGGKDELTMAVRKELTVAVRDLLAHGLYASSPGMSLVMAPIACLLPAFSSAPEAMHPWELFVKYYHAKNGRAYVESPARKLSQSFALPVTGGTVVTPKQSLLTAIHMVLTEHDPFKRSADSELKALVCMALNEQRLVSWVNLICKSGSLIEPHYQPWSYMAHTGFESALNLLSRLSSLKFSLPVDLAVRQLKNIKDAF
UniProt Q9Y3V2: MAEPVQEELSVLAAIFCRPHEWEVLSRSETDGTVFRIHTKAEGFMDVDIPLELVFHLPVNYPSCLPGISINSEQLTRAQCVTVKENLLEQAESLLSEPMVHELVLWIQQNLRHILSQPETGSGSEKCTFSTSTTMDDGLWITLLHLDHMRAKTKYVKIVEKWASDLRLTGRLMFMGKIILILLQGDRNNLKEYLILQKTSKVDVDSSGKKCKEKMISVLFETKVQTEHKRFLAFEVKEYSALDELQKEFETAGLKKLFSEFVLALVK
UniProt Q96FQ6: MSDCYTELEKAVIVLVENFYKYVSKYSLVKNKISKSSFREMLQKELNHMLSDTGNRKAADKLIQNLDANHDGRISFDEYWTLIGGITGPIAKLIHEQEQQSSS
UniProt Q7L099: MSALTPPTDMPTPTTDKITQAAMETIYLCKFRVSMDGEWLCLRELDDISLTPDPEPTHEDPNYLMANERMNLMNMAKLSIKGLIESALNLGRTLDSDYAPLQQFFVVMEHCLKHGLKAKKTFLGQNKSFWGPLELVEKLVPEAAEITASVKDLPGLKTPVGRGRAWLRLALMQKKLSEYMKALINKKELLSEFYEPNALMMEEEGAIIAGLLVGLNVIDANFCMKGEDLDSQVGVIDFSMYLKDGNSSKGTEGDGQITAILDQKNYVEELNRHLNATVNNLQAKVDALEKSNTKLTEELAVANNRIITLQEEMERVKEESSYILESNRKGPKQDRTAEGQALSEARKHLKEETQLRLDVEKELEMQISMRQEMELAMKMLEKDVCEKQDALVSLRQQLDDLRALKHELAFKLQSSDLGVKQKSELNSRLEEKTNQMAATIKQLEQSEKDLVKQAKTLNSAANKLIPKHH

How the values were obtained:
Assay in all cases: log2 fold change, soluble protein after heating vs DMSO (PISA); higher = thermal stabilisation; K562 lysate, 10 uM; active = over 0.2 and 3.5 SD of the protein, either way, in both replicates (recomputed)
[1] = compound: c1ccc([C@@H]2C[C@H]2NC2CCNCC2)cc1
How it was run: (§1)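 Log-two fold change in thermal stability relative to solvent controls is reported from duplicates. For each sample, crude K562 extract from dounce-homogenised pellets in PBS pH 7.4 with 1 mM MgCl2, at 1 mg/mL protein, was treated with 10 μM compound for 30 min. Aliquots heated for 3 min across 48°C-58°C were pooled, brought to 0.5% NP-40 at 4°C and cleared at 21,000xg for 90 min. The supernatant was quantified by TMTpro 16plex LC-MS/MS with channel sums equalised.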

[2] = compound: Cc1sc2c(c1C)C(c1ccc(Cl)cc1)=N[C@@H](CC(=O)OC(C)(C)C)c1nnc(C)n1-2
How it was run: as §1

[3] = compound: C1=CC=C(C=C1)[C@H](COC2=CC3=C(C=C2)NC(=O)N3)NC(=O)C4=CC=CN(C4=O)CC5=CC(=C(C=C5)F)F
How it was run: as §1

[4] = compound: CC1=C(SC2=C1C(=N[C@H](C3=NN=C(N32)C)CC(=O)N)C4=CC=C(C=C4)Cl)C
How it was run: as §1

[5] = compound: CC1=C2C(=CC=C1)N=C(N(C2=O)C3=CC=CC=C3C)CN4C=NC5=C(N=CN=C54)N
How it was run: as §1

Measured: log2 fold change

RTN4, A0A0U1RQR6
inactive: [1] -0.051

RXYLT1 (UniProt Q9Y2B1)
inactive: [2] -0.23

RTN4IP1 (UniProt Q8WWV3)
inactive: [3] 0.028 | [4] -0.005 | [5] 0.027 | [2] -0.119 | [1] 0.076

S100A12 (UniProt P80511)
inactive: [5] 0.198

S100A6 (UniProt P06703)
inactive: [5] -0.084 | [2] -0.1 | [1] 0.104

RPP30 (UniProt Q5VU11)
inactive: [5] 0.022

RTL8A (UniProt Q9BWD3)
inactive: [5] 0.215

RSRP1 (UniProt Q9BUV0)
inactive: [2] -0.238

RSBN1 (UniProt Q5VWQ0)
inactive: [3] 0.081 | [4] -0.027 | [5] -0.043 | [2] 0.002 | [1] -0.022

S100A10 (UniProt P60903)
inactive: [3] -0.048 | [4] 0.001 | [2] -0.233

RPP14 (UniProt O95059)
inactive: [3] 0.044 | [4] 0.015 | [5] -0.095 | [1] -0.093

S100A1 (UniProt P23297)
inactive: [5] -0.02 | [2] -0.065 | [1] -0.056

RPS8 (UniProt P62241)
inactive: [3] 0.025 | [4] 0.014 | [5] 0.01 | [2] 0.003 | [1] 0.02

RUFY2 isoform 1 (UniProt Q8WXA3)
inactive: [3] -0.28 | [4] -0.106 | [5] -0.087 | [1] -0.111

RTL8C (UniProt A6ZKI3)
inactive: [5] 0.068 | [2] -0.108

S100A4 (UniProt P26447)
inactive: [5] -0.063 | [2] -0.103 | [1] 0.11

RPSA (UniProt F8WD59)
inactive: [2] 0.303 | [1] 0.227

RPL39P5 (UniProt Q59GN2)
inactive: [3] 0.018 | [4] -0.061 | [5] -0.077 | [2] -0.046 | [1] -0.029

RXRB isoform 3 (UniProt P28702)
inactive: [3] -0.214 | [4] -0.018 | [5] -0.151 | [2] -0.057 | [1] 0.06

RXRA (UniProt P19793)
inactive: [2] 0.167 | [1] -0.149

RSC1A1 (UniProt Q92681)
inactive: [3] 0.059 | [4] -0.008 | [2] -0.052

RTEL1 isoform 2 (UniProt Q9NZ71)
inactive: [2] 0.097

RPS2 (UniProt P15880)
inactive: [3] 0.003 | [4] 0.025 | [5] -0.014 | [2] 0.028 | [1] 0.016

RSRC2 (UniProt Q7L4I2)
inactive: [3] 0.08 | [4] -0.048 | [5] 0.029 | [2] -0.008 | [1] -0.024

RPUSD3 (UniProt Q6P087)
inactive: [5] 0.058 | [2] 0.012 | [1] 0.035

RUNDC1 (UniProt Q96C34)
inactive: [3] 0.255 | [4] 0.177 | [2] -0.055 | [1] -0.236

RPS6KA5 (UniProt O75582)
inactive: [5] -0.084 | [2] -0.024 | [1] -0.017

Random excerpt: 2 records from the list.
RTL8C (UniProt A6ZKI3)
inactive: [5] 0.068 | [2] -0.108

RTL8A (UniProt Q9BWD3)
inactive: [5] 0.215

(continued)

S100A2 (UniProt P29034)
inactive: [3] 0 | [4] 0.037 | [5] 0.264 | [1] -0.45

RWDD3 (UniProt Q9Y3V2)
inactive: [2] 0.084 | [1] 0.016

RPS27A (UniProt P62979)
inactive: [3] 0.131 | [4] -0.152 | [5] 0.038 | [2] -0.058 | [1] 0.035

RSL24D1 (UniProt Q9UHA3)
inactive: [2] -0.062 | [1] 0.056

S100A16 (UniProt Q96FQ6)
inactive: [3] -0.484 | [4] 0.131 | [1] -0.038

RUFY3 isoform 2 (UniProt Q7L099)
inactive: [3] -0.008 | [4] 0.026 | [2] 0.007 | [1] 0.221

RPS6KB2 (UniProt Q9UBS0)
inactive: [2] -0.008 | [1] 0.226

RRP36 (UniProt Q96EU6)
inactive: [5] -0.151 | [2] 0.11
